Some entries share one result that the patent states for a list of compounds. Some ranges recur; such a range may be that of the whole group of compounds.
Experiments:
[1] = system: c-myb, c-myc, actin, and histone H3; experiment: Northern blots of growth related genes in 32D cells; format: cell-based, murine; settings: low IL-3, 1 mM, Northern blot
Method: Cell proliferation stimulation is transgenic mice, baboons, human cell culture, and a murine multi-lineage cell line by the active compounds, genes whose expression is increased early in cell proliferation induced by hematopoietic growth factors such as IL-3 and erythropoietin were examined. RNA was extracted from 32D cells treated with the compounds for one day and for 11 days. Northern blots were prepared with probes for the early growth related genes c-myb and c-myc and beta actin and histone H3 were used as controls. Increased expression of c-myb occurs transiently, and early, when growth is induced by erythropoietin and IL-3.
The first lane is from cells cultured in no IL-3, lane 2 in 25 U/ml murine IL3 and lanes 3-18 have low IL-3 concentration (0.5 U/ml) plus test compounds. […] All compounds were tested here at 1 mM. […] 20 ug of total RNA from each sample were subjected to Northern blot analysis using specific probes for c-myb, c-myc, actin, and histone H3. One day and 11-day samples from the same treated cells were quantitated by PhosphoImager.

32D cells = experiment: Proliferation studies using 32D cells at low IL-3; format: cell-based, murine; settings: 0.5 U/ml IL-3, 1 mM compound
Method: 32D cells were cultured in RPMI media with 10% fetal bovine serum (Sigma, St. Louis, Mo.), […] glutamine (GIBCO), and murine IL3 (20 U/ml) (Biosource International). Growth factor controls used included the standard concentration of IL-3 required for proliferation of these cells (25 U/ml) and a 50-fold lower concentration (0.5 U/ml), and erythropoietin (3 U/ml) or G-CSF ( U/ml), (Amgen, Thousand Oaks, Calif.). The test compounds were added at final concentrations of 1 mM. As a cell density of 2.5−10×10^5 is necessary for growth of this cell line, this density was maintained by passing the cells at three day intervals or by concentrating the cells when apoptosis occurred. Proportions of cells which were viable or apoptotic, and the fraction of cells in each part of the cell cycle was assessed by incubating the cells with Trypan blue and enumeration, and with propidium iodide incubation and FACScan analysis as previously described.
The effects of the representative compounds which have been synthesized or selected for resistance to beta oxidative metabolism and glucuronidation in stimulating γ globin gene expression in a human erythroid-like cell line and for their effects on cell growth utilizing a multi-lineage murine hematopoietic cell line, 32D. This cell line is dependent on high concentrations of IL-3 for growth. […]

[2] = Pharmacokinetic studies after single oral doses in baboons; settings: for time for which plasma levels persisted in the millimolar range: FIG. 4, primates (monkeys), oral doses of 40-500 mg/kg; for time for which millimolar plasma levels persisted: baboons, single oral doses

| Structure (SMILES) | c-myb induced [1] | increase in cell proliferation (32D cells) | time for which plasma levels persisted in the millimolar range [2] | time for which millimolar plasma levels persisted [2] |
| --- | --- | --- | --- | --- |
| O=C(O)COc1ccccc1 [PAA, phenoxyacetic acid] | 3-4 fold | 2 to 3 fold | greater than 6 hours | ≥ 6 h |
| CC(Cc1ccccc1)C(=O)O (stereo not drawn) [ST 7, α-methylhydrocinnamic acid] | 3-4 fold | 2 to 3 fold | greater than 6 hours | ≥ 6 h |
